## Screening data

From PubChem BioAssay record AID1347412 (NCATS, 2020).

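Immortalized human myoblasts carrying a HiBiT tag on HLA-B, stimulated with IFN-beta, read by luminescence for HiBiT signal or ATP-based viability after 24 h. Each compound was run as a 12-point threefold dilution series, topping out at 46 µM. The value is the fitted AC50 from the dose series; a lower number means a more potent effect. Calls follow NCATS curve-class scoring, and compounds whose curves are weak, poorly fitted or active only at the top dose are labelled inconclusive.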

Values are in nM. Every entry below has the call inconclusive. These entries are mostly ones the record files as inconclusive; other results of the assay are not listed here. A potency from a partial, single-point or poor curve is only a rough figure. Some entries filed as inconclusive have a full curve. The first word of each remark tells which way the curve ran; it can be opposite to the aim of the assay. Activity scores are not listed here.

| Compound | setting | fitted potency (nM) | curve as filed |
|---|---|---|---|
| `C=CCNC1=C2C[C@@H](C)C[C@H](OC)[C@H](O)[C@@H](C)/C=C(\C)[C@H](OC(N)=O)[C@@H](OC)/C=C\C=C(/C)C(=O)NC(=CC1=O)C2=O` | Viability | 557.1 | cytotoxic, full curve |
| `O=C(Nc1ccncc1)C(=O)c1cn(Cc2ccc(Cl)cc2)c2ccccc12` | Viability | 1977 | cytotoxic, full curve |
| `CC1=C(O)C(=O)C=C2C1=CC=C1[C@@]2(C)CC[C@@]2(C)[C@@H]3C[C@](C)(C(=O)O)CC[C@]3(C)CC[C@]12C` | Viability | 39442 | cytotoxic, single point |
| `Nc1nccn2c(C3CCC(C(=O)O)CC3)nc(-c3cc4cccc(Cl)c4[nH]3)c12` (stereo not given) | HiBiT | 3133 | inhibitor, full curve |
| `O=C1/C(=C\c2ccccc2)C[C@@]2(O)[C@H]3Cc4ccc(O)c5c4[C@@]2(CCN3CC2CC2)[C@H]1O5` | Viability | 35152 | cytotoxic, single point |
| `COCc1c(-c2ccc(NC(=O)Nc3cc(C(F)(F)F)ccc3F)c(F)c2)c2c(N)ncnn2c1CN1CCOCC1` | Viability | 8830 | cytotoxic, partial curve |
| `CC(C)(C)C(=O)Oc1ccc2c(c1)nc(NC(=O)c1cccc([N+](=O)[O-])c1)n2CCCO` | HiBiT | 24886 | inhibitor, partial curve |
| `CC(C)C[C@@H](C=O)NC(=O)[C@H](CC(C)C)NC(=O)[C@H](CC(C)C)NC(=O)OCc1ccccc1` | Viability | 3133 | cytotoxic, full curve, poor fit |
| `CO[C@@H](C(=O)N1Cc2[nH]nc(NC(=O)c3ccc(N4CCN(C)CC4)cc3)c2C1)c1ccccc1` | HiBiT | 3944 | inhibitor, full curve |
| `COC(=O)[C@]12CCC(C)(C)C[C@H]1[C@H]1C(=O)C=C3[C@@]4(C)C=C(C#N)C(=O)C(C)(C)[C@@H]4CC[C@@]3(C)[C@]1(C)CC2` | Viability | 35152 | cytotoxic, single point |
| `CNS(=O)(=O)c1ccc2c(c1)/C(=C/c1[nH]c3c(c1CCCN1CCN(C)CC1)CCCC3)C(=O)N2` | HiBiT | 7014 | inhibitor, partial curve |
| `CN1N=C(N)c2cn([C@@H]3O[C@H](COP(=O)(O)O)[C@@H](O)[C@@H]3O)c3ncnc1c23` | Viability | 2489 | cytotoxic, full curve |
| `CO[C@@H](C(=O)N1Cc2[nH]nc(NC(=O)c3ccc(N4CCN(C)CC4)cc3)c2C1)c1ccccc1` | Viability | 5571 | cytotoxic, partial curve |
| `C[C@@H]1C[C@@H]([C@H](O)CC2CC(=O)NC(=O)C2)C(=O)[C@@H](C)C1` | Viability | 557.1 | cytotoxic, full curve, poor fit |
| `CN1CCN(C(=O)c2ccc3cc(CCNc4ncnc5ccc(C#N)cc45)ccc3c2)CC1` | HiBiT | 1112 | inhibitor, full curve |
| `O=C(Nc1ccncc1)C(=O)c1cn(Cc2ccc(Cl)cc2)c2ccccc12` | HiBiT | 1570 | inhibitor, full curve |
| `COc1ccc(-c2nc(N3CCOCC3)c3sc(CN(C)c4ncc(C(=O)NO)cn4)cc3n2)cn1` | Viability | 3515 | cytotoxic, full curve |
| `C[C@H]1CCC/C=C/C2C[C@H](O)C[C@H]2[C@H](O)/C=C/C(=O)O1` (stereo not given in full) | Viability | 111.2 | cytotoxic, full curve |
| `CCOC(=O)[C@@H](N)Cc1ccc(-c2cc(O[C@H](c3ccc(Cl)cc3-n3ccc(C)n3)C(F)(F)F)nc(N)n2)cc1` | Viability | 24886 | cytotoxic, partial curve |
| `CC(C)c1cc(C(C)C)c(CC(=O)NS(=O)(=O)Oc2c(C(C)C)cccc2C(C)C)c(C(C)C)c1` | HiBiT | 12472 | inhibitor, partial curve |
| `c1ccc(CNc2nc(NCc3ccccc3)c3ccccc3n2)cc1` | HiBiT | 24886 | inhibitor, single point |
| `C[C@H]1COCCN1c1cc(C2(S(=O)(=O)C3CC3)CC2)nc(-c2ccc(NC(=S)NCCO)cc2)n1` | HiBiT | 55.7 | inhibitor, full curve |
| `COc1cc([C@@H]2c3cc4c(cc3[C@H](O)[C@H]3COC(=O)[C@@H]23)OCO4)cc(OC)c1OC` | HiBiT | 2792 | inhibitor, full curve |
| `C[C@H]1O[C@@H](O[C@H]2[C@@H](O)C[C@H](O[C@H]3[C@@H](O)C[C@H](O[C@H]4CC[C@@]5(C)[C@H](CC[C@@H]6[C@@H]5CC[C@]5(C)[C@@H](C7=CC(=O)OC7)CC[C@]65O)C4)O[C@@H]3C)O[C@@H]2C)C[C@H](O)[C@@H]1O` | Viability | 55.7 | cytotoxic, full curve |
| `CNC(=O)c1cc(COc2nnc(Nc3ccc(Cl)cc3)c3ccoc23)ccn1` | HiBiT | 35152 | inhibitor, partial curve, poor fit |
| `COc1ccc(-c2ccc3c(N4CCOCC4)nc(N4C[C@@H](C)O[C@@H](C)C4)nc3n2)cc1CO` | Viability | 1977 | cytotoxic, full curve |
| `CC(C)(C)CC(=O)OCC(=O)[C@@]1(O)CC[C@H]2[C@@H]3CCC4=CC(=O)C=C[C@]4(C)[C@H]3[C@@H](O)C[C@@]21C` | HiBiT | 351.5 | inhibitor, full curve, poor fit |

The first 3 entries again:

C=CCNC1=C2C[C@@H](C)C[C@H](OC)[C@H](O)[C@@H](C)/C=C(\C)[C@H](OC(N)=O)[C@@H](OC)/C=C\C=C(/C)C(=O)NC(=CC1=O)C2=O [Viability] read fitted potency 557.1 nM (cytotoxic, full curve).
O=C(Nc1ccncc1)C(=O)c1cn(Cc2ccc(Cl)cc2)c2ccccc12 [Viability] read fitted potency 1977 nM (cytotoxic, full curve).
CC1=C(O)C(=O)C=C2C1=CC=C1[C@@]2(C)CC[C@@]2(C)[C@@H]3C[C@](C)(C(=O)O)CC[C@]3(C)CC[C@]12C [Viability] read fitted potency 39442 nM (cytotoxic, single point).